Measured values: patent US8486950B2, “Janus kinase inhibitor compounds and methods” (F. Hoffmann-La Roche AG, priority 2009, dated 2013)
Some of these results come from one statement about several compounds together.

Biological target: T1, TYK2 kinase domain (Homo sapiens, UniProt P29597)
T1 construct: made in house; host or cells: SF9 insect cells (recombinant baculovirus)
T1 sequence (P29597 873-1187): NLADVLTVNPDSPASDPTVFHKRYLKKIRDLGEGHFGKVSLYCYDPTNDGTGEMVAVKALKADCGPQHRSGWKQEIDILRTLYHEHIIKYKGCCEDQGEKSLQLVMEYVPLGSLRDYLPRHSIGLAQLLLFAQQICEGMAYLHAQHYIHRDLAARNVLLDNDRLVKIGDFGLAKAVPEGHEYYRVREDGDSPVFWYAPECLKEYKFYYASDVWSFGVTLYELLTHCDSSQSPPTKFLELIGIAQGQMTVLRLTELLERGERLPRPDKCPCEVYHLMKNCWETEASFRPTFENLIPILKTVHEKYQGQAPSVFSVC
Assay: TYK2 inhibition assay (Caliper LabChip, isolated kinase domain)
Assay type: biochemical
Settings: 25 uM ATP, values given as 'about'

How did the Ki turn out when O=C(Nc1cc(NC(=O)C2CC2)ncc1F)c1c(Cl)cc(Cl)cc1Cl [Example 265, 2,4,6-trichloro-N-(2-(cyclopropanecarboxamido)-5-fluoropyridin-4-yl)benzamide] was run?
Its Ki is < 3.5 µM.

COCCCNC(=O)Nc1cc(NC(=O)c2c(Cl)cccc2Cl)ccn1 [Example 266, 2,6-Dichloro-N-{2-[3-(3-methoxypropyl)ureido]-pyridin-4-yl}benzamide] was tested. Which Ki did it give?
Its Ki is < 3.5 µM.

Which Ki does the source give for CN(C)CCNC(=O)Nc1cc(NC(=O)c2c(Cl)cccc2Cl)ccn1 [Example 267, 2,6-Dichloro-N-{2-[3-(2-dimethylaminoethyl)ureido]pyridin-4-yl}benzamide] here?
The Ki was < 3.5 µM.

Which Ki does the source give for O=C(Nc1cc(NC(=O)c2c(Cl)cccc2Cl)ccn1)N[C@H]1C[C@H](O)C1 [Example 268, Trans-2,6-Dichloro-N-{2-[3-(3-hydroxycyclobutyl)ureido]pyridin-4-yl}benzamide] here?
The Ki was < 3.5 µM.

With O=C(Nc1cc(NC(=O)c2c(Cl)cccc2Cl)ccn1)N[C@H]1C[C@@H](O)C1 [Example 269, cis-2,6-Dichloro-N-{2-[3-(3-hydroxycyclobutyl)ureido]pyridin-4-yl}benzamide] as the molecule, how does the Ki read?
The Ki was < 3.5 µM.

Which Ki does the source give for O=C(Nc1ccncc1)c1ccccc1Br [Example 271, 2-bromo-N-(pyridine-4-yl)benzamide] here?
The Ki was < 3.5 µM.

With O=C(Nc1ccncc1F)c1c(Cl)cccc1Cl [Example 272, 2,6-dichloro-N-(3-fluoropyridin-4-yl)benzamide] as the molecule, how does the Ki read?
Its Ki is < 3.5 µM.

With O=C(Nc1ccncc1)c1ccc(F)cc1Br [Example 273, 2-bromo-4-fluoro-N-(pyridine-4-yl)benzamide] as the molecule, how does the Ki read?
Its Ki is < 3.5 µM.

Which Ki does the source give for O=C(Nc1ccncc1)c1cc(F)ccc1Br [Example 274, 2-bromo-5-fluoro-N-(pyridine-4-yl)benzamide] here?
The Ki was < 3.5 µM.

Cc1cnccc1NC(=O)c1c(Cl)cccc1Cl [Example 275, 2,6-dichloro-N-(3-methylpyridin-4-yl)benzamide] was tested. Which Ki did it give?
Its Ki is < 3.5 µM.

Which Ki does the source give for Cc1ccc(C(=O)Nc2ccncc2)c(Cl)c1 [Example 276, 2-chloro-4-methyl-N-(pyridine-4-yl)benzamide] here?
The Ki was < 3.5 µM.

Cc1cc(Cl)c(C(=O)Nc2ccnc(NC(=O)C3CC3)c2)c(Cl)c1 [Example 277, 2,6-dichloro-N-(2-(cyclopropanecarboxamido)pyridine-4-yl)-4-methylbenzamide] was tested. Which Ki did it give?
The Ki was < 3.5 µM.

With O=C(Nc1ccnc(NC(=O)C2CC2)c1)c1ccccc1C(F)(F)F [Example 278, N-(2-(cyclopropanecarboxamido)pyridine-4-yl)-2-(trifluoromethyl)benzamide] as the molecule, how does the Ki read?
Its Ki is < 3.5 µM.

Which Ki does the source give for O=C(Nc1ccnc(NC(=O)[C@H]2C[C@H]2F)c1)c1c(F)ccc(F)c1Cl [Example 279, 2-chloro-3,6-difluoro-N-(2-((1R,2R)-2-fluorocyclopropanecarboxamido)pyridine-4-yl)benzamide] here?
The Ki was < 3.5 µM.

Which Ki does the source give for O=C(Nc1ccnc(NC(=O)[C@@H]2C[C@@H]2F)c1)c1c(F)ccc(F)c1Cl [Example 280, 2-chloro-3,6-difluoro-N-(2-((1S,2S)-2-fluorocyclopropanecarboxamido)pyridine-4-yl)benzamide] here?
The Ki was < 3.5 µM.

For N#Cc1cc(Cl)c(C(=O)Nc2ccnc(N)c2)c(Cl)c1 [Example 281, N-(2-aminopyridin-4-yl)-2,6-dichloro-4-cyanobenzamide], which Ki is on record?
Its Ki is < 3.5 µM.

CC1(C)CC1C(=O)Nc1cc(NC(=O)c2c(F)cccc2Cl)ccn1 (stereo not shown) [Example 282, 2-chloro-N-(2-(2,2-dimethylcyclopropanecarboxamido)pyridine-4-yl)6-fluorobenzamide] was tested. Which Ki did it give?
The Ki was < 3.5 µM.

Which Ki does the source give for CC1(C)CC1C(=O)Nc1cc(NC(=O)c2c(Cl)cccc2Cl)ccn1 (stereo not shown) [Example 283, 2,6-dichloro-N-(2-(2,2-dimethylcyclopropanecarboxamido)pyridine-4-yl)benzamide] here?
The Ki was < 3.5 µM.

Cc1nc(Cl)cc(Nc2cc(NC(=O)c3c(Cl)cccc3Cl)ccn2)n1 [Example 285] was tested. Which Ki did it give?
Its Ki is < 3.5 µM.

Which Ki does the source give for Cc1cc(Nc2cc(NC(=O)c3c(Cl)cccc3Cl)ccn2)nc(Cl)n1 [Example 286, 2,6-dichloro-N-(2-(2-chloro-6-methylpyrimidin-4-ylamino)pyridine-4-yl)benzamide] here?
The Ki was < 3.5 µM.

How did the Ki turn out when Cc1cc(C)nc(Nc2cc(NC(=O)c3c(Cl)cc(Cl)cc3Cl)ccn2)c1 [Example 287] was run?
Its Ki is < 3.5 µM.

For Cc1cc(Nc2cc(NC(=O)c3ccc(Cl)cc3Cl)ccn2)nc(C)n1 [Example 288, 2,4-dichloro-N-(2-(2,6-dimethylpyrimidin-4-ylamino)pyridine-4-yl)benzamide], which Ki is on record?
The Ki was < 3.5 µM.

How did the Ki turn out when Cc1cc(Nc2cc(NC(=O)c3ccc([N+](=O)[O-])cc3Cl)ccn2)nc(C)n1 [Example 289, 2-chloro-N-(2-(2,6-dimethylpyrimidin-4-ylamino)pyridine-4-yl)-4-nitrobenzamide] was run?
The Ki was < 3.5 µM.

How did the Ki turn out when O=C(Nc1ccnc(NS(=O)(=O)C2CC2)c1)c1c(Cl)cccc1Cl [Example 290, 2,6-dichloro-N-(2-(cyclopropanesulfonamido)pyridine-4-yl)benzamide] was run?
Its Ki is < 3.5 µM.

How did the Ki turn out when COC[C@@H]1CCCN1c1nc(C)cc(Nc2cc(NC(=O)c3c(Cl)cccc3Cl)ccn2)n1 [Example 291, (S)-2,6-dichloro-N-(2-(2-(2-(methoxymethyl)-pyrrolidin-1-yl)-6-methylpyrimidin-4-ylamino)pyridine-4-yl)benzamide] was run?
The Ki was < 3.5 µM.

For COC[C@H]1CCCN1c1nc(C)cc(Nc2cc(NC(=O)c3c(Cl)cccc3Cl)ccn2)n1 [Example 292, (R)-2,6-dichloro-N-(2-(2-(2-(methoxymethyl)-pyrrolidin-1-yl)-6-methylpyrimidin-4-ylamino)pyridine-4-yl)benzamide], which Ki is on record?
The Ki was < 3.5 µM.

How did the Ki turn out when Cc1cc(Nc2cc(NC(=O)c3c(Cl)cccc3Cl)ccn2)nc(N2CCOC[C@H]2C)n1 [Example 293, (R)-2,6-dichloro-N-(2-(6-methyl-2-(3-methylmorpholino)-pyrimidin-4-ylamino)pyridine-4-yl)benzamide] was run?
The Ki was < 3.5 µM.

Which Ki does the source give for Cc1cc(Nc2cc(NC(=O)c3c(Cl)cccc3Cl)ccn2)nc(N2CCOC[C@@H]2C)n1 [Example 294, (S)-2,6-dichloro-N-(2-(6-methyl-2-(3-methylmorpholino)-pyrimidin-4-ylamino)pyridine-4-yl)benzamide] here?
Its Ki is < 3.5 µM.

Cc1cc(Nc2cc(NC(=O)c3ccc(N)cc3Cl)ccn2)nc(C)n1 [Example 295, 4-amino-2-chloro-N-(2-(2,6-dimethylpyrimidin-4-ylamino)pyridine-4-yl)benzamide] was tested. Which Ki did it give?
The Ki was < 3.5 µM.

Which Ki does the source give for O=C(Nc1ccnc(Nc2ccc3ccccc3n2)c1)c1c(Cl)cccc1Cl [Example 296, 2,6-dichloro-N-(2-(quinolin-2-ylamino)pyridine-4-yl)benzamide] here?
Its Ki is < 3.5 µM.

N#Cc1cc(F)c(C(=O)Nc2ccnc(NC(=O)C3CC3)c2)c(Cl)c1 [Example 297, 2-chloro-4-cyano-N-(2-(cyclopropanecarboxamido)pyridine-4-yl)-6-fluorobenzamide] was tested. Which Ki did it give?
Its Ki is < 3.5 µM.

Which Ki does the source give for O=C(Nc1ccnc(NC(=O)C2CC2)c1)c1c(Cl)cc(OC(F)(F)F)cc1Cl [Example 298] here?
The Ki was < 3.5 µM.

O=C(Nc1cc(NC(=O)C2CC2)ncc1[N+](=O)[O-])c1c(Cl)cccc1Cl [Example 301] was tested. Which Ki did it give?
The Ki was < 3.5 µM.

For Cc1cc(Nc2cc(NC(=O)c3c(Cl)cccc3Cl)c(F)cn2)nc(C)n1 [Example 302, 2,6-dichloro-N-(2-(2,6-dimethylpyrimidin-4-ylamino)-5-fluoropyridin-4-yl)benzamide], which Ki is on record?
The Ki was < 3.5 µM.

Which Ki does the source give for O=C(Nc1ccnc(NC(=O)C2CC2)c1)c1c(F)ccc(F)c1Cl [Example 303, 2-chloro-N-(2-(cyclopropanecaboxamido)pyridine-4-yl)-3,6-difluorobenzamide] here?
The Ki was < 3.5 µM.

Which Ki does the source give for Cc1cc(Nc2cc(NC(=O)c3c(Cl)cccc3Cl)c(NC(=O)C(F)(F)F)cn2)nc(C)n1 [Example 304, 2,6-dichloro-N-(2-(2,6-dimethylpyrimidin-4-ylamino)-5-(2,2,2-trifluoroacetamido)pyridin-4-yl)benzamide] here?
Its Ki is < 3.5 µM.

Which Ki does the source give for O=C(CCO)Nc1cc(NC(=O)c2c(Cl)cccc2Cl)ccn1 [Example 305, 2,6-dichloro-N-(2-(3-hydroxypropanamido)-pyridin-4-yl)benzamide] here?
Its Ki is < 3.5 µM.

How did the Ki turn out when NC1(C(=O)Nc2cc(NC(=O)c3c(Cl)cccc3Cl)ccn2)CC1 [Example 306, N-(2-(1-aminocyclopropanecarboxamido)pyridin-4-yl)-2,6-dichlorobenzamide] was run?
Its Ki is < 3.5 µM.

CCNCc1cc(Cl)c(C(=O)Nc2ccnc(NC(=O)[C@H]3C[C@H]3F)c2)c(Cl)c1 [Example 325, 2,6-dichloro-4-((ethylamino)methyl)-N-(2-((1R,2R)-2-fluorocyclopropanecarboxamido)pyridin-4-yl)benzamide] was tested. Which Ki did it give?
Its Ki is < 3.5 µM.

For CCNCc1cc(Cl)c(C(=O)Nc2ccnc(NC(=O)[C@@H]3C[C@@H]3F)c2)c(Cl)c1 [Example 326, 2,6-dichloro-4-((ethylamino)methyl)-N-(2-((1S,2S)-2-fluorocyclopropanecarboxamido)pyridin-4-yl)benzamide], which Ki is on record?
The Ki was < 3.5 µM.

For CC(C)NCc1cc(Cl)c(C(=O)Nc2ccnc(NC(=O)[C@H]3C[C@H]3F)c2)c(Cl)c1 [Example 327, 2,6-dichloro-N-(2-((1R,2R)-2-fluorocyclopropanecarboxamido)pyridin-4-yl)-4-((isopropylamino)methyl)benzamide], which Ki is on record?
Its Ki is < 3.5 µM.

CC(C)NCc1cc(Cl)c(C(=O)Nc2ccnc(NC(=O)[C@@H]3C[C@@H]3F)c2)c(Cl)c1 [Example 328, 2,6-dichloro-N-(2-((1S,2S)-2-fluorocyclopropanecarboxamido)pyridin-4-yl)-4-((isopropylamino)methyl)benzamide] was tested. Which Ki did it give?
The Ki was < 3.5 µM.

How did the Ki turn out when O=C(Nc1ccnc(NC(=O)[C@H]2C[C@H]2F)c1)c1c(Cl)cc(CNCC2CC2)cc1Cl [Example 329, 2,6-dichloro-4-((cyclopropylmethylamino)-methyl)-N-(2-((1R,2R)-2-fluorocyclopropanecarboxamido)pyridin-4-yl)benzamide] was run?
Its Ki is < 3.5 µM.
